Source: PubChem BioAssay AID504444 (National Center for Advancing Translational Sciences (NCATS), 2011)
The campaign covered roughly 360,000 compounds. About 7,500 (2.1%) were called active. This list was built around the results that the source calls inconclusive (neither active nor inactive); the mix of calls is not that of the screen. Calls come from the whole dose curve; as a rule, active = well fitted inhibition curve with a large enough effect; inconclusive = small, poorly fitted or top-dose-only effect, or effect the other way; inactive = flat fitted curve, though single readings scatter. Where the call is inconclusive, the potency comes from a doubtful curve fit.

assay: Nrf2 qHTS screen for inhibitors; settings: A549 ARE-Fluc reporter, luciferase luminescence, 18-24 h; series mostly up to 46 µM; note: nearly all actives have a fitted effect of over 60% in size
Summary of the method: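 A549 ARE_Fluc cells, 5000/well, 5% FBS OPTI-MEM; compounds in dose-response, 18-24 h at 37 °C/5% CO2; CellTiter-Fluor viability read (Ex 405/Em 525), then BugLite luciferase luminescence = Nrf2 activity.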
Potency is the fitted concentration of half-maximal effect.

SMILES | Potency
O=C(COc1ccc(Br)cc1Cl)NC1CCCCC1 | inconclusive: 2.31 µM [activator, single point]
CCS(=O)(=O)N1CCC2(CC1)OC(=O)C(C)=C2C(=O)NCc1ccccc1C | inconclusive: 29.1 µM [activator, single point]
CC(=C/c1ccc(C(C)C)cc1)/C=N/NC(=O)CSc1ccccn1 | inconclusive: 5.8 µM [activator, partial curve, poor fit]
O=C(O)c1ccc(C2Nc3ccccc3C(=O)N2Cc2ccccc2)cc1 (stereo not drawn) | inconclusive: 16.4 µM [activator, partial curve, poor fit]
COc1ccc(CNS(=O)(=O)c2ccc3c(c2)N(C(C)=O)CC(C)S3)cc1 (stereo not drawn) | inconclusive: 23.1 µM [falling, partial curve, poor fit]
CCC(C)Oc1cccc(OCCCCN2C(=O)NC(C)(C)C2=O)c1 (stereo not drawn) | inconclusive: 25.9 µM [falling, partial curve, poor fit]
O=C(CSc1nnc(-c2cccnc2)n1CCN1CCCCC1)Nc1cccc(Cl)c1 | inactive
CCCc1cc(-c2[nH]ncc2-c2ccc3c(c2)OCCCO3)c(O)cc1O | inconclusive: 32.6 µM [activator, partial curve, poor fit]
COc1ccc(-c2onc(C)c2C)cc1S(=O)(=O)NCc1ccco1 | inconclusive: 18.4 µM [activator, partial curve, poor fit]
O=C(CN1CCN(C(=O)c2ccc(-c3nc4ccccc4s3)o2)CC1)Nc1ccccc1Cl | inconclusive: 29.1 µM [falling, partial curve, poor fit]
O=C(CN1C(=O)/C(=C/c2ccc(Cl)cc2)SC1=S)NC1C=CS(=O)(=O)C1 (stereo not drawn) | inconclusive: 9.2 µM [falling, partial curve, poor fit]
O=C(C1CCN(Cc2ccc(F)cc2)CC1)N(CCc1ccccc1)Cc1ccccc1 | inconclusive: 29.1 µM [falling, single point]
C=CCNC(=S)N/N=C/c1ccc(OCc2ccccc2Cl)cc1 | inconclusive: 1.64 µM [falling, partial curve, poor fit]
Nc1ccc(N2CCCCC2)c(S(=O)(=O)Nc2ccccc2Cl)c1 | inactive
CCCCc1nn2c(=O)cc(COC(=O)COc3ccc(C)cc3)nc2s1 | inactive
Cn1c(=O)n(C)c2cc([N+](=O)[O-])c(N3CCN(S(=O)(=O)c4ccc(C(C)(C)C)cc4)CC3)cc21 | inconclusive: 2.59 µM [falling, full curve]
O=C(NCCCN1CCOCC1)c1cc(-c2ccc(F)cc2)nc2ccccc12 | inactive
Cc1ccc(C(=O)OCC(=O)N2C(C)CCCC2C)s1 (stereo not drawn) | inconclusive: 0.206 µM [activator, partial curve]
Cc1nc2ccc(NC(=O)NCCCO)cc2s1 | inconclusive: 2.59 µM [activator, full curve]
CCCCc1nn2c(=O)cc(COC(=O)c3cccc(OC)c3)nc2s1 | inactive
Cn1c(=O)c2c(ncn2CC(=O)OCC(=O)Nc2ccc(Cl)cc2)n(C)c1=O | inconclusive: 29.1 µM [falling, single point]

Entries listed so far that contain four or more nitrogen atoms, in the order listed:
SMILES | Potency
O=C(CSc1nnc(-c2cccnc2)n1CCN1CCCCC1)Nc1cccc(Cl)c1 | inactive
O=C(CN1CCN(C(=O)c2ccc(-c3nc4ccccc4s3)o2)CC1)Nc1ccccc1Cl | inconclusive: 29.1 µM [falling, partial curve, poor fit]
Cn1c(=O)n(C)c2cc([N+](=O)[O-])c(N3CCN(S(=O)(=O)c4ccc(C(C)(C)C)cc4)CC3)cc21 | inconclusive: 2.59 µM [falling, full curve]
Cn1c(=O)c2c(ncn2CC(=O)OCC(=O)Nc2ccc(Cl)cc2)n(C)c1=O | inconclusive: 29.1 µM [falling, single point]

Remaining list, next part.

SMILES | Potency
COc1ccc(C2Nc3ccccc3C(=O)N2Cc2cccc(C(F)(F)F)c2)cc1COc1ccc(NC(C)=O)cc1 (stereo not drawn) | inconclusive: 18.4 µM [falling, partial curve, poor fit]
COc1ccccc1NC(=O)Cc1nn(C)c(=O)c2ccccc12 | inconclusive: 7.31 µM [falling, partial curve, poor fit]
Cn1c2ccccc2c2c(C(=O)N3CCN(c4ccc(F)cc4)CC3)cn(C3CCCC3)c(=O)c21 | active: 25.9 µM
COc1ccc(-c2cc(C(F)(F)F)nc(SCC(=O)NCc3ccc(OC)c(OC)c3)n2)cc1 | inconclusive: 13 µM [falling, partial curve, poor fit]
CC(C)c1nnc(NC(=O)CCS(=O)(=O)c2nc(-c3cccs3)cc(C(F)(F)F)n2)s1 | active: 23.1 µM
CSCCC(NC(=O)c1ccc(C)o1)C(=O)O (stereo not drawn) | inconclusive: 20.6 µM [activator, single point]
CN(C)S(=O)(=O)N1CCC(c2ccc(F)cc2)C(COc2ccc3c(c2)OCO3)C1 (stereo not drawn) | inconclusive: 23.1 µM [falling, partial curve, poor fit]
COc1ccc(/C=C2\CC/C(=C\c3ccc(OC)c(OC)c3)C2=O)cc1OC | inactive
CC1CCN(c2ccc([N+](=O)[O-])c(SCCO)c2)CC1 | inconclusive: 23.1 µM [falling, partial curve, poor fit]
COc1cccc(C=Nc2ccccc2C(=O)Nc2ccccc2)c1O | inconclusive: 23.1 µM [activator, single point]
CC(C)CN1C(=O)/C(=C/c2cccs2)NC1=S | inconclusive: 7.31 µM [falling, partial curve, poor fit]
CN1CC(c2ccccc2Cl)C2(COc3ccccc3C2=O)C12C(=O)Nc1ccccc12 (stereo not drawn) | active: 20.6 µM
COc1ccc(C2/C=C\CN(C(=O)C3CCCC3)[C@H](Cc3ccccc3)C(=O)N2Cc2ccc(F)cc2)cc1 (stereo partly drawn) | inconclusive: 25.9 µM [falling, single point]
Clc1ccccc1OCCCCN1CCNCC1 | inactive
CN(CC(=O)Nc1cccc(F)c1)C(=O)c1cc(S(=O)(=O)N2CCN(c3ccccc3)CC2)ccc1Cl | inconclusive: 8.2 µM [falling, partial curve, poor fit]
Nc1nc(-c2ccc(-n3nncc3-c3ccco3)cc2)cs1 | inconclusive: 18.4 µM [falling, partial curve, poor fit]
CCC(C)c1ccccc1N1CC(C(=O)N(C)CC(=O)Nc2cccc(F)c2)CC1=O (stereo not drawn) | inconclusive: 18.4 µM [falling, partial curve, poor fit]
Cc1cccc(OCC(=O)NC2CCCC2)c1 | inconclusive: 29.1 µM [activator, single point]
CCCCCCCCOC(=O)c1c(CSC(=N)N)n(C)c2cc(Br)c(OC(C)=O)cc12 | inconclusive: 32.6 µM [falling, single point]
O=[N+]([O-])c1cc(/C=N/N2CCCCC2)ccc1Cl | inconclusive: 5.8 µM [activator, full curve, poor fit]
O=C(c1ccco1)N1CCN(c2ncnc3c2[nH]c2ccc(Br)cc23)CC1 | active: 8.2 µM

SMILES | Potency
CCn1c(COc2ccc(Cl)cc2)nnc1SC1CCc2ccccc2C1=O (stereo not drawn) | active: 25.9 µM
CCn1c(=O)c(C(=O)CN(C)CC(=O)Nc2cccc(F)c2)c(N)n(Cc2ccccc2)c1=O | inconclusive: 0.0164 µM [falling, full curve, poor fit]
CC1=C(C(=O)Nc2ccc(C)cc2C)C(c2ccc(O)cc2)n2nnnc2N1 (stereo not drawn) | inactive
Cc1ccc(N2C(=O)N(CC(=O)NCc3ccccc3Cl)C(=O)C2C)cc1 (stereo not drawn) | inconclusive: 29.1 µM [falling, single point]
Cc1ccc(C)c(NS(=O)(=O)c2cc(C(=O)Nc3ccccc3-c3ccccc3)ccc2Cl)c1 | inconclusive: 16.4 µM [falling, partial curve, poor fit]
Cc1cc(F)cc(C)c1Cn1cnc2c(cnn2C(C)(C)C)c1=O | inconclusive: 16.4 µM [activator, partial curve, poor fit]
CCCCC[C@H]1CN(Cc2ccc(OC)cc2)C(=O)[C@@H]1CC(=O)NCc1ccccc1 | inconclusive: 20.6 µM [falling, partial curve, poor fit]
CC(=O)c1c(C)[nH]c(C(=O)Nc2nc(-c3ccc(-c4ccccc4)cc3)cs2)c1C | active: 23.1 µM
CC1(C(=O)OCC(=O)Nc2ccc(Cl)cn2)CC1(Cl)Cl (stereo not drawn) | inconclusive: 7.31 µM [falling, single point]
CC(=O)Nc1ccc(NC(=O)COc2ccc(-c3ccc(C#N)cc3)cc2)cc1 | inactive
O=S(=O)(c1ccc2[nH]c3c(c2c1)CCCC3)N1CCCCC1 | inactive
c1ccc(-c2nccc(-c3ccc(-n4cnc5ccccc54)cc3)n2)cc1 | inconclusive: 16.4 µM [falling, single point]
O=S(=O)(c1ccc(N2CCC(c3ccc(Cl)cc3)=N2)cc1)N(CCO)CCO | inconclusive: 29.1 µM [falling, single point]
CCOC(=O)/C(=C\c1ccc([N+](=O)[O-])o1)NC(=O)c1ccccc1 | inconclusive: 20.6 µM [falling, single point]
Cc1ccc(OCc2nc(-c3cccs3)no2)c([N+](=O)[O-])c1 | inconclusive: 7.31 µM [activator, partial curve]
Cc1ccc(CSc2ncnc3c2cnn3-c2ccccc2)cc1 | inconclusive: 6.51 µM [falling, full curve, poor fit]
COCCn1c(C)cc(C(=O)CSc2nnc(C)s2)c1C | active: 14.6 µM
O=C(NNC(=O)C1CCCN(S(=O)(=O)c2ccc3ccccc3c2)C1)C1CC1 (stereo not drawn) | inconclusive: 20.6 µM [falling, partial curve, poor fit]
Cc1c(C(=O)NCC2CCCO2)oc2ccc(Br)cc12 (stereo not drawn) | inconclusive: 23.1 µM [activator, single point]
NC(=O)c1sc2nc(-c3ccccc3)c3c(c2c1N)CCCC3 | inconclusive: 29.1 µM [falling, single point]
COc1cc(NS(=O)(=O)c2ccc(NC(=O)COc3ccccc3Cl)cc2)nc(OC)n1 | inconclusive: 18.4 µM [falling, single point]
